The campaign covered roughly 52,000 sequences. About 210 (0.4%) were called active.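 Rule for the calls: active = gene whose silencing raises cell survival under the drug, median off-target-corrected z-score across its silencing RNAs 2 or more; inactive = the rest.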 The list shows a part of the results.
Assay: Resistance to Poly (ADP-Ribose) Polymerase inhibitor: Gene Identification via Genome-wide siRNA Screen
Conditions: mouse BRCA2 R2336H ES cells, olaparib, CellTiter-Glo viability; active compounds read high
Method in brief: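 Genome-wide siRNA screen (3 siRNAs/gene, 20 nM) in mouse ES cells carrying hypomorphic BRCA2 R2336H; olaparib 500 nM added 48 h post-transfection, CellTiter-Glo viability 72 h later. Normalized to plate-median negative control; MAD z-scores, gene median, seed-adjusted.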

Sequence | z-score
CGAGCAUGCUGAAAAGACCTT against Steap | inactive: -0.19
GGUUUUUGUGGCUGAUCUUTT against A230078I01Rik | inactive: 2.53
GCUUCUGAAUUACAAAGCUTT against Cmah | inactive: 0.955
GGGAAUGUGUGCCUUGUUGTT against Olfr16 | inactive: -1.54
GGACCCUCUGCUCUUCAUUTT against Slc4a9 | inactive: 1.39
GCGUUCACGGUCAAAAAAUTT against Fbxw10 | inactive: 0.841
GCGCAACUAACUCACAACATT against 4930556L07Rik | inactive: 0.627
GGCGAACACUAAAAAGGCATT against AU021107 | inactive: 0.434
CGAUACCUUUAGUUGACUATT against Hcrtr2 | inactive: -1.21
GCUUCUCUCUUCAUCUAUGTT against Olfr524 | inactive: 0.0334
GGGUGUACUGAACUUUGUGTT against Gcn5l2 | inactive: -1.53
CCUUUAGCAUAAUAGGAAUTT against 9230109A22Rik | inactive: 1.82
GCUGGAAUUCUCUUGGCUGTT against MGI:3576664 | inactive: -1.53
GCAGACAUUACCCUAUAGUTT against Mtf2 | inactive: 0.677
GGAUGAUGACUUUGAGAAGTT against Map2k1 | inactive: 0.162
GGUUGUUCGUGGACACUACTT against Rpl26 | inactive: -2.07
GCCUGCCUACGAGAUCAACTT against Mglap | inactive: 0.0298
GGCUGUGCAUUAUAUCCUUTT against Lhfp | inactive: -0.402
CCUGGUGUUCGUGUACCUGTT against Cdk5r2 | inactive: 0.853
GGAUAUAGAUCUGAUUGACTT against Nfe2l1 | inactive: 0.85
GGAUUCAUUCAACCCAUGGTT against Olfr1441 | inactive: 1.52
CGACUGUGACAAAAACAUGTT against 2010109I03Rik | inactive: 0.687
GCUUCCUUCUGCUAGAUGGTT against Oxct2a | inactive: 0.167
GGCAUCCUUGAGCUUUAAATT against 1110001M19Rik | inactive: 0.632
GCCAUCUCUAUGUUGUUGATT against D130058I21Rik | inactive: 0.0946
GAGAAUGAGUUCUGCCCAGTT against Lhb | inactive: -1.31

Sequence | z-score
GCAAAAUUAUCAGUGAGGATT against C330027I04Rik | inactive: 0.321
GGAACAGAAGUCAAGUGGATT against C730027J19Rik | inactive: 1.75
GGGAAACUCAAUGUAGAUGTT against Arhgap5 | inactive: -0.272
GGCUUGUUAAUGAAUGCACTT against Ankrd9 | inactive: 0.954
GGUGUACCAGCAAACUUUUTT against Nhlh2 | inactive: -0.782
GGUGCUAAAGUCAAAAAACTT against Fras1 | inactive: 1.58
GCUUAAAGUGCAUCGCCAATT against Stc1 | inactive: 0.964
GGAUGAUACAUGUUUGAAUTT against V1ra1 | inactive: -0.128
GCAGUGUAUUGGUAAUCAATT against Olfr630 | inactive: 0.454
GGUACUCAAGGUUCAGACCTT against Tcfe3 | inactive: 0.285
GGUCUACCACUUCAACUUCTT against Sema7a | inactive: 1.19
GGUCUACCCAUGACCUACUTT against Nme4 | inactive: -1.13
GCAAUGAACUAUGAAGGCATT against Npm1 | active: 0.811
GGACCUGUCCAUCUUCAUCTT against Scn1b | inactive: 2.1
CCUUUGAAUCCCAGGUUCATT against Lmo1 | inactive: 1.16
CCAGUAUGCACAAAUUUAATT against Ube1c | inactive: 0.19
AAAUUCUGCCUGACGAGAUTT against Scgb3a1 | inactive: 2.05
GGUGAGAACUCAGAUAAGCTT against Txk | inactive: 0.279
CGACCUGAAAUCUCAAGUUTT against Clecsf1 | inactive: 0.834
GGAUGUGAAGAUCUAUCUUTT against Itm2c | inactive: -0.29
GGCAAUCCCAUAGAGGCUGTT against Smcr7 | inactive: -0.874
GUUGUAAUUGGUUAUGUGCTT against Dscr5 | inactive: 1.65
GCAAUCUCCAACAAACUCUTT against Gemin7 | inactive: 0.0463
GGCAGAAUCCAGCUCAGUUTT against BC038286 | inactive: -1.27
GGAGGGAAGCGAGAGUUUUTT against Emilin2 | inactive: 0.588
GGAACUUUGUUAAAAUGGATT against 4932414N04Rik | inactive: 0.31

Sequence | z-score
GGAUGGACCUUCAGAAAAGTT against 1500001A10Rik | inactive: -2.16
GGAAGACAGGCAUAAAAAATT against A230035L05Rik | inactive: 0.713
GGUGAAGAAAGCACUGUUUTT against Olfr980 | inactive: 0.273
GGAGCGAGAAGCUUUAGAATT against D19Ertd721e | inactive: -0.0343
GGCAACUGGAAAUCUGGGATT against Adar | inactive: 0.456
GAAGAUGCCACGCUAAAAATT against Adam34 | inactive: 2.14
CGGAAACAAUGCAAUGGCATT against Bcl11a | inactive: 1.04
GCAACGAGUGUGUUUUCUGTT against A230091H23 | inactive: 0.423
GCACACUCUGUUAUAAAAUTT against Osbpl2 | inactive: 0.537
GGAAAAUGGAAUUUGGUCCTT against Il12b | inactive: 0.829
GGAAAGGUGACCAAGAACUTT against Igsf4b | inactive: 4.26
AAUAACACGUCAGUUUAUCTT against A530064D06Rik | inactive: 3.34
GGCUUUUCUUACAAAGCAATT against 1300010K09Rik | inactive: 0.109
GGACACUUUCCAAUGGUGATT against 9330128H10Rik | inactive: 0.993
GGUAGAGAAACCUAGUGUUTT against Mtap6 | inactive: -1.07
GGGUGACCUUUACGUCUUCTT against D6Ertd253e | inactive: -0.477
CUACUAUAGUGUAAUGGUGTT against Psg18 | inactive: 0.695
CGACUCAAUUUCUGUGGCCTT against Olfr525 | inactive: 0.952
CGCCUUUAGUAAGGAUCACTT against Tube1 | inactive: 0.365
GGUGUUCAAAAGUGGACUUTT against Pnck | inactive: -0.745
GGACCUACAGCUGUGUGUUTT against Rgmc | inactive: -0.942
GGAAACAGAGACUGAAUUUTT against 5730509K17Rik | inactive: 1.25
GGACGUGCAGGAAAUGCAUTT against Alas1 | inactive: 0.673
GGAGUCCUGUAAAUGCAAUTT against Pcaf | inactive: 1.5
GGCACUUACUUCUGAGAAGTT against A230106M15Rik | inactive: -0.679
CCCUAAGUCUCUAAUUGACTT against LOC271048 | inactive: 0.515

Reprinted at random: 5 entries already listed, in no set order.
Sequence | z-score
GAAGAUGCCACGCUAAAAATT against Adam34 | inactive: 2.14
GGCUUUUCUUACAAAGCAATT against 1300010K09Rik | inactive: 0.109
GCCAUCUCUAUGUUGUUGATT against D130058I21Rik | inactive: 0.0946
CCUGGUGUUCGUGUACCUGTT against Cdk5r2 | inactive: 0.853
GGUGCUAAAGUCAAAAAACTT against Fras1 | inactive: 1.58

Further records follow:

Sequence | z-score
GGACAGCUCUCUUUAGUCUTT against Erf | inactive: 1.22
GGCCAUCAUUGAGGAAUAUTT against Eif4g1 | inactive: -1.69
GGAUGCUUGUGGACCUGUGTT against Olfr1123 | inactive: -0.285
GGAGCUUACAUGGUCCCUATT against 1700016G05Rik | inactive: -1.73
GGAGGAAGGCUUCCUAAAGTT against Slc25a27 | inactive: 0.459
GGAACAACAUUGUUCUAAATT against Fstl5 | inactive: -0.151
GCAUGUGAAAUCUAGAUCATT against Cks1 | inactive: 0.231
GGAUCGCUUAGUCUCAUGATT against 1110054O05Rik | inactive: 2.34
GCCAAUUUGGAUAUUCAUGTT against 4921517N04Rik | inactive: 0.872
GGCCUUUGUGUAUAUCUAUTT against V1rj3 | inactive: -0.799
CCAAGCACGCACCAAGAUCTT against BC023296 | inactive: -0.77
GCUCUGGAGGAAAAAAAUATT against Olfr1255 | inactive: -1.22
GGUGGAGAAGAGUUUCUGCTT against Gpr132 | inactive: 0.778
GCUGGAAUGUAACUGUUUCTT against 2010110O04Rik | inactive: 2.15
CAGGGCAAGGUGAUAUCUGTT against Olfr1411 | inactive: 0.0573
ACCUUUUCAAAUCUGUGCGTT against Urp | inactive: 0.1
GGCAAAAGACACUGUCAAUTT against Birc1c | inactive: 1.09
GGAACUGCUUACGAAAUACTT against Lama4 | inactive: -0.374
GGAAGUGAGGAAGUGACAUTT against 1810009N02Rik | inactive: -1.27
GGGCUUCUCCUAAUUCAGATT against Armcx3 | inactive: 0.232
GCAAUGCACCAUUAGCAGCTT against Stard8 | inactive: -2.01
GGAGUUCCUAUUUAAUCCCTT against Hoxb8 | inactive: 1.04
GGAUUGUGGCCUUCUUUGATT against Bcl2 | inactive: -0.758
CCUCAUUGUGUCGUCUUACTT against C230075L19Rik | inactive: -1.31
GGUCGGAUGGAUUCAAAUUTT against 1110059F07Rik | inactive: -2.22
UCUUUGGCAACACUACCAUTT against Olfr1386 | inactive: -2.29

Source: PubChem BioAssay AID1347423 (Functional Genomics Laboratory (NCATS/FGL), 2020)
